No constants are given. Whether binding was seen depends on the method and setting. Binding seen in cells or lysates may run through a third protein. For some of these results: Binding can be weak; no strength is given. Where a sequence is shown, tags or fusion partners need not be part of it.
What was measured:
Assay in all cases: co-IP; HEK293T cells co-transfected with an HA-tagged and a Flag-tagged protein; lysis buffer 50 mM Tris-HCl pH 7.5, 300 mM NaCl, 1% Triton-X, 5 mM EDTA, 10% glycerol; IP with anti-Flag antibody and Protein-G Sepharose, immunoblot with anti-HA and anti-Flag
[1] = target: T1, Flag-tagged repressor domain (RD) of RIG-I (UniProt O95786)
T1 sequence: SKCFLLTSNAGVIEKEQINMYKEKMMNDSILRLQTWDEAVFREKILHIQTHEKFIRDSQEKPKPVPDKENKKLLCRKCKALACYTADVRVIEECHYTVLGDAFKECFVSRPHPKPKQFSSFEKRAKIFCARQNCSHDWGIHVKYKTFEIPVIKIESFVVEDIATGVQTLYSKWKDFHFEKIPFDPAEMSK

[2] = target: T2, Flag-tagged DExD/H-box domain of RIG-I (UniProt O95786)
T2 sequence: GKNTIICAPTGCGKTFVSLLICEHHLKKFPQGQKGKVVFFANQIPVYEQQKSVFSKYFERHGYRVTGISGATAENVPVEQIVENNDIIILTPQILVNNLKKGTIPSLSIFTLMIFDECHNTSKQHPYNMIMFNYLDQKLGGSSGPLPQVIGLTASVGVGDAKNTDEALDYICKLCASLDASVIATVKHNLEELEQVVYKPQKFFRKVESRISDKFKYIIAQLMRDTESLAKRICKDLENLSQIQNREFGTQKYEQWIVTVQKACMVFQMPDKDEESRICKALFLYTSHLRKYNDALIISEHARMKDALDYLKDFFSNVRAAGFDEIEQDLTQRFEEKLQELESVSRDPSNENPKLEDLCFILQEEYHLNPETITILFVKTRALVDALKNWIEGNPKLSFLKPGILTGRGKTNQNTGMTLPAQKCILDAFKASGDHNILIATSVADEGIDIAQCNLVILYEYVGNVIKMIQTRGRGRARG

[3] = target: T3, Flag-tagged IKKε (UniProt Q14164)
T3 sequence: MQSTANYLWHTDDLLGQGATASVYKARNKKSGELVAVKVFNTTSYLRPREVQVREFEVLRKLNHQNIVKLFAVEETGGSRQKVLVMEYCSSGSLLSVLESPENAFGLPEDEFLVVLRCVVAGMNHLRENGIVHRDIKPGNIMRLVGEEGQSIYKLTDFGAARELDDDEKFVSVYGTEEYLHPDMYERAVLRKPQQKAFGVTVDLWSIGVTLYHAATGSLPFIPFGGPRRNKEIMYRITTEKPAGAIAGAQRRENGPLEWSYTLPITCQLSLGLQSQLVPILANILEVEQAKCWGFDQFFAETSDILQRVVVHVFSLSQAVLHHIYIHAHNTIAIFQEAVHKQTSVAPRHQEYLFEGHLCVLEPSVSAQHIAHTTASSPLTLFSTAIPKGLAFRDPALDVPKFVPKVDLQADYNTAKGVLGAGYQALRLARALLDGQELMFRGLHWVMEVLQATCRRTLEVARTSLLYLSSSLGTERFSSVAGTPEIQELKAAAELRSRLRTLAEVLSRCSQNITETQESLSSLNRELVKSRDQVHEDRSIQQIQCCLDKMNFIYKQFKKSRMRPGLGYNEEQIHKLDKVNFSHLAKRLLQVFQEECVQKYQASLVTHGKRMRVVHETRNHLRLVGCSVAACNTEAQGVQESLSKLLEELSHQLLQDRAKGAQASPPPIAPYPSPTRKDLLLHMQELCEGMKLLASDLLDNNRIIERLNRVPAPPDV

[4] = target: T4, Flag-tagged CARD domain of RIG-I (UniProt O95786)
T4 sequence: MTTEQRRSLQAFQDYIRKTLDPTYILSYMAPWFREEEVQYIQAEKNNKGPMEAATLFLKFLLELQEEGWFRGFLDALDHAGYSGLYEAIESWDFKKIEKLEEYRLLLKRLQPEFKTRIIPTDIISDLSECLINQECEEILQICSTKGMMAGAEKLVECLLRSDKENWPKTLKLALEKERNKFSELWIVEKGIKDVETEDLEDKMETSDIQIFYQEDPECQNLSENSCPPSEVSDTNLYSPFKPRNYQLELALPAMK

HA-tagged Zika virus nonstructural protein 5 (NS5)
binding [1]: no binding
binding [2]: no binding
binding [3]: no binding
binding [4]: binds
